Measurements as given in US20250101100A1.
These are yes or no findings as the source states them, for the method shown. Some results given as binding are weak or reduced against the parent protein; the word gives no strength.

Protein sequences, listed by entry. Tags and fused reporters are not part of them. Lines headed by an entry give the natural chain unless they say otherwise; changes in a name come on top.
UniProt P26715: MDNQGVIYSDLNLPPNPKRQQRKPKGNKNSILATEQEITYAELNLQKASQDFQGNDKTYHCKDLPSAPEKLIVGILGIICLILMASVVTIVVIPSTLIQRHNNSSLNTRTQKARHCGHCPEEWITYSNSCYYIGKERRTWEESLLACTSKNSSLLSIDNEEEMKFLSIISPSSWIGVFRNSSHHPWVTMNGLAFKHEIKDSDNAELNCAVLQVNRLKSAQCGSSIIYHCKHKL
UniProt P26717: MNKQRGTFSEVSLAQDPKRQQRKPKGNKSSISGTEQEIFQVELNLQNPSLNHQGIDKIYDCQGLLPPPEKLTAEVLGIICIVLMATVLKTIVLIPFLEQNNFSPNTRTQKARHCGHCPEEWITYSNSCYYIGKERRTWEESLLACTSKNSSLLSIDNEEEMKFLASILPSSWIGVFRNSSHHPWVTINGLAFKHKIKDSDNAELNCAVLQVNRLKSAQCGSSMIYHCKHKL

Legend:
[1] = molecular target: human NKG2A on cells (human) (UniProt P26715); experiment: flow cytometry on CHO cells expressing human NKG2A
[2] = molecular target: human NKG2A on cells (human) (UniProt P26715); experiment: flow cytometry, HLA-E pentamer blocking on CHO cells expressing human NKG2A
[3] = molecular target: human NKG2C on CHO cells (human) (UniProt P26717); experiment: flow cytometry, binding to CHO cells expressing human NKG2C, anti-human IgG-PE

Measured: binding

B1: 11H9.A1 antibody (antibody, human IgG1, kappa, V domains shown)
VH: EVQLVESGGGLVKPGGSLRLSCAASGFTFSSYSMNWVRQAPGKGLEWVSSISSSSSYIYYADSVKGRFTISRDNAKNSLYLQMNSLRAEDTAVYYCARLLWFGEIFDYWGQGTLVTVSS
VL: AIQLTQSPSSLSASVGDRVTITCRASQGISSALAWYQQKPGKAPKLLIYDASSLKSGVPSRFSGSGSGTDFTLTISSLQPEDFATYYCQQFNSYPITFGQGTRLEIKR
binds: [1] | [2] | [3]
